Reference: the supplement of paper PMC12819154, “High-throughput peptide-centric local stability assay extends protein–ligand identification to membrane proteins, tissues and bacteria” (Nature Structural & Molecular Biology, 2025)
The other results are listed elsewhere or left out. Most entries show no effect beyond the scatter of the controls.

Sequences of proteins named here, by UniProt entry; tags and fusion partners are left off. A change or cut given only in a name is not applied to a line headed by its entry.
UniProt Q15386: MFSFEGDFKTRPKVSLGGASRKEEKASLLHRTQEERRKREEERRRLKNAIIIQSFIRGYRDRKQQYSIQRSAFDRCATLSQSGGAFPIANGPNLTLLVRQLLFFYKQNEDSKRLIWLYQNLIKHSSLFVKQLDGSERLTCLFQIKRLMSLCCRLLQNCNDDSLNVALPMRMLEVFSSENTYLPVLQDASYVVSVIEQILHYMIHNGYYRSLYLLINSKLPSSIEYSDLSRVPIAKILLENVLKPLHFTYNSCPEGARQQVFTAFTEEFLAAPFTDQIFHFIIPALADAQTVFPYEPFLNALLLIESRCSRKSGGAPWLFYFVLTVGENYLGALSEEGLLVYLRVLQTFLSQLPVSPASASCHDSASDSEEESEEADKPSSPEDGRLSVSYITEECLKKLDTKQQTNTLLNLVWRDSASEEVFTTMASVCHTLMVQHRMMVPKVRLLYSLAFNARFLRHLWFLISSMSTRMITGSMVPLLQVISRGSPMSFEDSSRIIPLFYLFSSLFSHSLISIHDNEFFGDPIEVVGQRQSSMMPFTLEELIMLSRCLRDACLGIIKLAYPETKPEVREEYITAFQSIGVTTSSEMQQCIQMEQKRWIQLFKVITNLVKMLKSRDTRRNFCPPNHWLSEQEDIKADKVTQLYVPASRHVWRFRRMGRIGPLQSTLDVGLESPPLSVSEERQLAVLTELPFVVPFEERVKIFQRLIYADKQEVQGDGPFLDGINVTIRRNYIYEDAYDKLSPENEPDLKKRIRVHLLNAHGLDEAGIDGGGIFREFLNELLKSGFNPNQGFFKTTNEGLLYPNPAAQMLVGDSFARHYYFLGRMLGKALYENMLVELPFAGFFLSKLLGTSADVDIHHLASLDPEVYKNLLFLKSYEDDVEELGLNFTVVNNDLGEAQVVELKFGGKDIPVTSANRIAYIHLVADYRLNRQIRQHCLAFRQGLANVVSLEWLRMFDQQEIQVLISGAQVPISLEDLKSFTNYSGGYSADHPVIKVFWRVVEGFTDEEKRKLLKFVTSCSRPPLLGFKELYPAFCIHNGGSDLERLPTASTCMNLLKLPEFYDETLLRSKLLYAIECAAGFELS
UniProt Q15067: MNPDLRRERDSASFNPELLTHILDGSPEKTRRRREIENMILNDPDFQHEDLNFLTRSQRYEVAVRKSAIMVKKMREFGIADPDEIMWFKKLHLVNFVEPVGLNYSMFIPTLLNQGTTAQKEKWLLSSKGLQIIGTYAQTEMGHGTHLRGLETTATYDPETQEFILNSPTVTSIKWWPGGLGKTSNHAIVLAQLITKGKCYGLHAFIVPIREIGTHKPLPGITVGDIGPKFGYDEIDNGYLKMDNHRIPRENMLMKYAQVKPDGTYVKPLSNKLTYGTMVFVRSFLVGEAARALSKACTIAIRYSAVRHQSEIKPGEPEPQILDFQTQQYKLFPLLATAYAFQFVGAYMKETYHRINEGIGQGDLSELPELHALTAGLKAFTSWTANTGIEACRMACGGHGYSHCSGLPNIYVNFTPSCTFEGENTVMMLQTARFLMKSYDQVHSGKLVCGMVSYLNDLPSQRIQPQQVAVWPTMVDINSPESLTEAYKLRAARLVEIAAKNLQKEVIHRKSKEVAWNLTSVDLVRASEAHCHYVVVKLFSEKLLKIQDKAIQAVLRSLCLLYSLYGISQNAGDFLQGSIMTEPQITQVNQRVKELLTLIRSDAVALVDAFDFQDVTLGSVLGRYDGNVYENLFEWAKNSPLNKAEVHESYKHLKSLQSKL
UniProt Q2VPK5: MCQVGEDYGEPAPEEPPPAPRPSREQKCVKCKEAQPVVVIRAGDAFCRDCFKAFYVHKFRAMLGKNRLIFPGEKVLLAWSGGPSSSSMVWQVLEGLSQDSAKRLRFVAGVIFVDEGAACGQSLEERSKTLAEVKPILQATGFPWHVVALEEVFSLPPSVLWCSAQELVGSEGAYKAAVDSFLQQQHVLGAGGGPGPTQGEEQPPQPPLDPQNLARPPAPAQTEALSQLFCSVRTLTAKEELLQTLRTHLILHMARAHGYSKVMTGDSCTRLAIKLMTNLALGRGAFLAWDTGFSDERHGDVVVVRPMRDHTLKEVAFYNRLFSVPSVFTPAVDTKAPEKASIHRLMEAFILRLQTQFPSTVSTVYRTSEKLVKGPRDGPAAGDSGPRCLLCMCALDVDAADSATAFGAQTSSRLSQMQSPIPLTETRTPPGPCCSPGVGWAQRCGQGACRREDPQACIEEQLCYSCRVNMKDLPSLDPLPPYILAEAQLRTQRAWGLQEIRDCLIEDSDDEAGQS
UniProt Q2M389: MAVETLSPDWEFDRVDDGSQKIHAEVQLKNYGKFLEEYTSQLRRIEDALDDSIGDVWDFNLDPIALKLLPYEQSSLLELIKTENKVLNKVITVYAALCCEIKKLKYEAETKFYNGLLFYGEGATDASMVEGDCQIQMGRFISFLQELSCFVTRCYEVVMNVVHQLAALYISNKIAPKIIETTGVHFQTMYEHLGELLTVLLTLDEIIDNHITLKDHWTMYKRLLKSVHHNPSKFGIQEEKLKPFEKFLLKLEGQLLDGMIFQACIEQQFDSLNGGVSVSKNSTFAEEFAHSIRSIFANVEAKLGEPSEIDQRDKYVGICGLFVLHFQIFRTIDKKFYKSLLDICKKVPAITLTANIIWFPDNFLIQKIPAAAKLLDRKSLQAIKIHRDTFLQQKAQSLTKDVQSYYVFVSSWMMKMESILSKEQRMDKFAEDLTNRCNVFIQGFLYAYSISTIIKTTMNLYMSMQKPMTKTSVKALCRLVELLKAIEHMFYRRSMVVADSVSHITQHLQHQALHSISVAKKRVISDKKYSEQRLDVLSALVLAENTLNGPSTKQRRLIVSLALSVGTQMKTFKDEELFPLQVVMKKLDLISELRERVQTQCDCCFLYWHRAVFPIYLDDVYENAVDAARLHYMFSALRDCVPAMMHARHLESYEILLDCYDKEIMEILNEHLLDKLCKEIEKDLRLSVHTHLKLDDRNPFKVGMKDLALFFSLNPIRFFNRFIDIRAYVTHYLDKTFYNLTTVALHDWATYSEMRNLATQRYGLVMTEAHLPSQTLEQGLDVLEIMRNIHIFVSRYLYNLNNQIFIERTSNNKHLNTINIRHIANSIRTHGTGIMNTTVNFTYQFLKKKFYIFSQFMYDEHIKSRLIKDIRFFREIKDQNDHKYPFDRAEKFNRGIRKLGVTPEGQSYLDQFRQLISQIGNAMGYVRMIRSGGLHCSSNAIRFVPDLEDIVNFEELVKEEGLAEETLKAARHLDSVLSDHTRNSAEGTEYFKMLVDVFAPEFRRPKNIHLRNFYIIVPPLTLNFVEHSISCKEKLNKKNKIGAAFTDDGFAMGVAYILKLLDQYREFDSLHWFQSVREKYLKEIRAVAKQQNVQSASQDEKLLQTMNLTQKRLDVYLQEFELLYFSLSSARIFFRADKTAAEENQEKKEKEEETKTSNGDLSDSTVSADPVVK
UniProt Q15011: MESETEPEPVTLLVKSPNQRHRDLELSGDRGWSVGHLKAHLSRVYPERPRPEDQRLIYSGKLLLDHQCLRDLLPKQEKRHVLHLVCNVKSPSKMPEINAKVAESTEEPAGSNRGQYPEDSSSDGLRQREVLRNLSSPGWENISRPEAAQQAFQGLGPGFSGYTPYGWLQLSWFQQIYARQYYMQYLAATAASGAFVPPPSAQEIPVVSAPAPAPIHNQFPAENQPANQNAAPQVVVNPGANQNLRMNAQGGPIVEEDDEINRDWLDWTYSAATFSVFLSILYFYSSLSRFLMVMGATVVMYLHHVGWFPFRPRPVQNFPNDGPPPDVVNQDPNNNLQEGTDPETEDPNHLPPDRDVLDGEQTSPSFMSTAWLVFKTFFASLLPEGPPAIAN
UniProt Q15007: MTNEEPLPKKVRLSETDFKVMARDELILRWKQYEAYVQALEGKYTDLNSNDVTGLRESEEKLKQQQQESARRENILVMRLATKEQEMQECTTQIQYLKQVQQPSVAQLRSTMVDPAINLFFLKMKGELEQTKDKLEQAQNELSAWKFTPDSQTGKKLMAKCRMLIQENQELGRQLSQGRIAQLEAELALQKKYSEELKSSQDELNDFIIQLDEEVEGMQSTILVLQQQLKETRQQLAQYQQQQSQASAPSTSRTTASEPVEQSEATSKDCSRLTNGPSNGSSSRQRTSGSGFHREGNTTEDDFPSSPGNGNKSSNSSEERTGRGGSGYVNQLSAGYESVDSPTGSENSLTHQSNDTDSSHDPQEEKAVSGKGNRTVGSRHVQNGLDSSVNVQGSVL
UniProt Q15654: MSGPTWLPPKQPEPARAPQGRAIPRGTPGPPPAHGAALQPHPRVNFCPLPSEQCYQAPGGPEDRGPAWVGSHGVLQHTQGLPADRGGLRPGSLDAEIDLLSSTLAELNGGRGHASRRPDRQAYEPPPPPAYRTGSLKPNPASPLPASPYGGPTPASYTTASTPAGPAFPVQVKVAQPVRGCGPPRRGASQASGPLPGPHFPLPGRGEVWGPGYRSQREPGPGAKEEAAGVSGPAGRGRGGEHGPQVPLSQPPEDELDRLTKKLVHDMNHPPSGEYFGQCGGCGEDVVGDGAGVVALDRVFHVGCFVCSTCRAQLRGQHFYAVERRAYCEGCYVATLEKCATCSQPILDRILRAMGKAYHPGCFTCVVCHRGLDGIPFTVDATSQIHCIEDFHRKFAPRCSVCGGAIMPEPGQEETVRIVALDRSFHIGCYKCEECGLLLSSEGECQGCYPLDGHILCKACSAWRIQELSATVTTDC
UniProt Q15329: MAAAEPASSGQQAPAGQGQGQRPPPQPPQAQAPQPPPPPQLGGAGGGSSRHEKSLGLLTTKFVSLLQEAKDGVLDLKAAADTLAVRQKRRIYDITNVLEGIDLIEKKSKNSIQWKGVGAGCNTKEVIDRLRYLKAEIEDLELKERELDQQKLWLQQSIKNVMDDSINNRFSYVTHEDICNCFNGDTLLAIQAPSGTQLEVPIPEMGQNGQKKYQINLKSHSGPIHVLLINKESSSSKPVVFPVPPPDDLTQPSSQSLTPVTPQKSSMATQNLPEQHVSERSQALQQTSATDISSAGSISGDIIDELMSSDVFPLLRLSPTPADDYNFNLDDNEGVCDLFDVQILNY

Compound: Cc1nc(Nc2ncc(C(=O)Nc3c(C)cccc3Cl)s2)cc(N2CCN(CCO)CC2)n1 [dasatinib]
Assay: log2 fold change of tryptic peptide abundance, ligand vs vehicle (limited proteolysis) (log2 ratio); higher = more trypsin-susceptible (destabilized)
Conditions: ligand concentration: 5 uM; sample: K562 cleared lysate

| Target | log2 fold change |
| --- | --- |
| UBE3C (peptide sequence: VVEGFTDEEKRK, peptide start residue: 999) (UniProt Q15386) | 0.63 |
| ACOX1 (peptide sequence: TSNHAIVLAQLITK, peptide start residue: 183) (UniProt Q15067) | 0.204 |
| UniProt Q2VPK5 (peptide sequence: DGPAAGDSGPR, peptide start residue: 377) | 0.185 |
| UniProt Q2M389 (peptide sequence: LDDRNPFKVGMK, peptide start residue: 694) | 0.382 |
| HERPUD1 (peptide sequence: VYPERPRPEDQR, peptide start residue: 44) (UniProt Q15011) | 0.636 |
| WTAP (peptide sequence: TNEEPLPK, peptide start residue: 2) (UniProt Q15007) | -0.716 |
| TRIP6 (peptide sequence: VFHVGCFVCSTCRAQLR, peptide start residue: 299) (UniProt Q15654) | 0.288 |
| UniProt Q15329 (peptide sequence: AAADTLAVR, peptide start residue: 78) | -0.178 |
